Measured values published in patent publication US20220325000A1.
Results are given in words; binding and its absence hold for the method and conditions named. Some results given as binding are weak or reduced against the parent protein; the word gives no strength.

Protein sequences, listed by entry. Tags and fused reporters are not part of them. Residues count along the entry.
UniProt P10646, residues 29-189: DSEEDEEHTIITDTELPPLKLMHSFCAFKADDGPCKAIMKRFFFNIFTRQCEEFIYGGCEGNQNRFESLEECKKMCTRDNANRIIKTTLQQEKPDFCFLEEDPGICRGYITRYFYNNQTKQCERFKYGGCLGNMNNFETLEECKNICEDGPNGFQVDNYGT

Target: hTFPI161-Chis (human) (UniProt P10646)
Assay: ELISA, hTFPI161 coated, anti-human IgG4-HRP

B1: Hu7G62-v2 (antibody, human IgG4 S228P, kappa, V domains shown)
VH: QVQLVQSGAEVKKPGASVKVSCKASGYSFTSYGISWVKQAPGQGLEWIGEIYPRSTNTYYNEKFMGKATLTADKSSSTAYMELSSLRSEDTAVYYCARESFYGDYGAMDFWGQGTLVTVSS
VL: DIVMTQSPLSLPVTPGEPASISCKSSQSLLESDGKTYLNWYLQKPGQSPQLLIYLVSKLDSGVPDRFSGSGSGTDFTLKISRVEAEDVGVYYCSQGTHFPRTFGQGTKVEIKR
binding: binds
